Test results reported in the supplement of paper PMC8728848.
Some of the results follow.

How the values were obtained:
Assay in all cases: glycan array binding signal (z-score within array); higher = stronger binding
Settings in all cases: glycan notation: IUPAC condensed, linker removed
[1] = target: GalNAc(b1-4)GlcNAc
How it was run: (§1)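 Negative Z-scores can be read as non-binding. The Z-score is calculated within each array and then averaged across arrays of one protein sequence at different concentrations or buffers and across linkers. Arrays, 3228 in all, were curated from the Consortium for Functional Glycomics database and kept only where the protein sequence was available.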

[2] = target: GalNAc(b1-4)GlcNAc(b1-2)Man
How it was run: as §1

[3] = target: GalNAc(b1-4)GlcNAc(b1-2)Man(a1-3)[GalNAc(b1-4)GlcNAc(b1-2)Man(a1-6)]Man(b1-4)GlcNAc(b1-4)GlcNAc
How it was run: as §1

[4] = target: GalNAc(b1-4)GlcNAc(b1-3)GalNAc(b1-4)GlcNAc
How it was run: as §1

[5] = target: GalNAc(b1-4)GlcNAc6S
How it was run: as §1

[6] = target: GalNAc(b1-6)GalNAc
How it was run: as §1

[7] = target: GalNAc3S(b1-4)GlcNAc
How it was run: as §1

[8] = target: GalNAc3S(b1-4)GlcNAc3S
How it was run: as §1

[9] = target: GalNAc3S(b1-4)[Fuc(a1-3)]GlcNAc
How it was run: as §1

[10] = target: GalNAc4S6S(b1-4)GlcNAc
How it was run: as §1

[11] = target: GalNAc6S(b1-4)GlcNAc
How it was run: as §1

[12] = target: Glc(a1-4)Glc
How it was run: as §1

[13] = target: Glc(a1-4)Glc(a1-4)Glc(a1-4)Glc
How it was run: as §1

[14] = target: Glc(a1-6)Glc(a1-6)Glc
How it was run: as §1

[15] = target: Glc(a1-6)Glc(a1-6)Glc(a1-6)Glc
How it was run: as §1

[16] = target: Glc(b1-4)Glc
How it was run: as §1

[17] = target: Glc(b1-6)Glc
How it was run: as §1

[18] = target: GlcA(b1-3)Gal
How it was run: as §1

[19] = target: GlcA(b1-3)GlcNAc
How it was run: as §1

[20] = target: GlcA(b1-6)Gal
How it was run: as §1

[21] = target: GlcA3S(b1-3)Gal(b1-4)GlcNAc(b1-2)Man
How it was run: as §1

[22] = target: GlcA3S(b1-3)Gal(b1-4)GlcNAc(b1-3)Gal(b1-4)Glc
How it was run: as §1

[23] = target: GlcNAc(a1-3)Gal(b1-4)GlcNAc
How it was run: as §1

[24] = target: GlcNAc(a1-4)Gal(b1-3)GlcNAc
How it was run: as §1

[25] = target: GlcNAc(a1-4)Gal(b1-4)GalNAc
How it was run: as §1

[26] = target: GlcNAc(a1-4)Gal(b1-4)GlcNAc
How it was run: as §1

[27] = target: GlcNAc(a1-4)Gal(b1-4)GlcNAc(b1-3)Gal(b1-4)Glc
How it was run: as §1

[28] = target: GlcNAc(a1-4)Gal(b1-4)GlcNAc(b1-3)Gal(b1-4)GlcNAc
How it was run: as §1

[29] = target: GlcNAc(a1-4)Gal(b1-4)GlcNAc(b1-3)Gal(b1-4)GlcNAc(b1-3)Gal(b1-4)GlcNAc
How it was run: as §1

[30] = target: GlcNAc(a1-4)Gal(b1-4)GlcNAc(b1-3)Gal(b1-4)[Fuc(a1-3)]GlcNAc(b1-3)Gal(b1-4)[Fuc(a1-3)]GlcNAc
How it was run: as §1

[31] = target: GlcNAc(a1-6)Gal(b1-4)GlcNAc
How it was run: as §1

[32] = target: GlcNAc(b1-2)Gal(b1-3)GalNAc
How it was run: as §1

[33] = target: GlcNAc(b1-2)Man(a1-3)[GlcNAc(b1-2)Man(a1-6)]Man(b1-4)GlcNAc(b1-4)GlcNAc
How it was run: as §1

[34] = target: GlcNAc(b1-2)Man(a1-3)[GlcNAc(b1-2)Man(a1-6)]Man(b1-4)GlcNAc(b1-4)[Fuc(a1-6)]GlcNAc
How it was run: as §1

[35] = target: GlcNAc(b1-2)Man(a1-3)[GlcNAc(b1-4)][GlcNAc(b1-2)Man(a1-6)]Man(b1-4)GlcNAc(b1-4)GlcNAc
How it was run: as §1

[36] = target: GlcNAc(b1-2)Man(a1-3)[GlcNAc(b1-4)][GlcNAc(b1-2)Man(a1-6)]Man(b1-4)GlcNAc(b1-4)[Fuc(a1-6)]GlcNAc
How it was run: as §1

[37] = target: GlcNAc(b1-2)[GlcNAc(b1-4)]Man(a1-3)[GlcNAc(b1-2)Man(a1-6)]Man(b1-4)GlcNAc(b1-4)GlcNAc
How it was run: as §1

[38] = target: GlcNAc(b1-2)[GlcNAc(b1-4)]Man(a1-3)[GlcNAc(b1-4)][GlcNAc(b1-2)Man(a1-6)]Man(b1-4)GlcNAc(b1-4)GlcNAc
How it was run: as §1

[39] = target: GlcNAc(b1-2)[GlcNAc(b1-4)]Man(a1-3)[GlcNAc(b1-4)][GlcNAc(b1-2)[GlcNAc(b1-6)]Man(a1-6)]Man(b1-4)GlcNAc(b1-4)GlcNAc
How it was run: as §1

[40] = target: GlcNAc(b1-2)[GlcNAc(b1-4)]Man(a1-3)[GlcNAc(b1-4)][GlcNAc(b1-2)[GlcNAc(b1-6)]Man(a1-6)]Man(b1-4)GlcNAc(b1-4)[Fuc(a1-6)]GlcNAc
How it was run: as §1

[41] = target: GlcNAc(b1-2)[GlcNAc(b1-6)]Man(a1-6)[GlcNAc(b1-2)Man(a1-3)]Man(b1-4)GlcNAc(b1-4)GlcNAc
How it was run: as §1

[42] = target: GlcNAc(b1-2)[GlcNAc(b1-6)]Man(a1-6)[GlcNAc(b1-2)Man(a1-3)]Man(b1-4)GlcNAc(b1-4)[Fuc(a1-6)]GlcNAc
How it was run: as §1

[43] = target: GlcNAc(b1-2)[GlcNAc(b1-6)]Man(a1-6)[GlcNAc(b1-4)][GlcNAc(b1-2)Man(a1-3)]Man(b1-4)GlcNAc(b1-4)GlcNAc
How it was run: as §1

[44] = target: GlcNAc(b1-3)Fuc
How it was run: as §1

[45] = target: GlcNAc(b1-3)Gal
How it was run: as §1

B1: Actd5 (Actinidia), P84527 (protein)
chain: ISSCNGPCRDLNDCDGQLICIKGKCNDDPQVGTHICRGTTHSHQPGGCKPSGTLTCRGKSYPTYDCSPPVTSSTPAKLTNNDFSEGGDDGGPSECDESYHNNNERIVALSTGWYNGGSRCGKMIRITASNGKSVSAKVVDECDSRHGCDKEHAGQPPCRNNIVDGSNAVWSALGLDKNVGVVDITWSMA
glycan array binding signal (z-score) [1]: 0.427
glycan array binding signal (z-score) [2]: -0.975
glycan array binding signal (z-score) [3]: 1.76
glycan array binding signal (z-score) [4]: 0.076
glycan array binding signal (z-score) [5]: -0.111
glycan array binding signal (z-score) [6]: 0.065
glycan array binding signal (z-score) [7]: -0.085
glycan array binding signal (z-score) [8]: -0.552
glycan array binding signal (z-score) [9]: -1.15
glycan array binding signal (z-score) [10]: -0.058
glycan array binding signal (z-score) [11]: -1.58
glycan array binding signal (z-score) [12]: 0.452
glycan array binding signal (z-score) [13]: -0.179
glycan array binding signal (z-score) [14]: 0.034
glycan array binding signal (z-score) [15]: -0.072
glycan array binding signal (z-score) [16]: -0.612
glycan array binding signal (z-score) [17]: -0.856
glycan array binding signal (z-score) [18]: -0.66
glycan array binding signal (z-score) [19]: -1.11
glycan array binding signal (z-score) [20]: -0.202
glycan array binding signal (z-score) [21]: -0.597
glycan array binding signal (z-score) [22]: -0.788
glycan array binding signal (z-score) [23]: -0.071
glycan array binding signal (z-score) [24]: -0.928
glycan array binding signal (z-score) [25]: -0.555
glycan array binding signal (z-score) [26]: -0.292
glycan array binding signal (z-score) [27]: -0.725
glycan array binding signal (z-score) [28]: -0.087
glycan array binding signal (z-score) [29]: -0.443
glycan array binding signal (z-score) [30]: 0.242
glycan array binding signal (z-score) [31]: -0.535
glycan array binding signal (z-score) [32]: 0.451
glycan array binding signal (z-score) [33]: -0.132
glycan array binding signal (z-score) [34]: 1.18
glycan array binding signal (z-score) [35]: -0.202
glycan array binding signal (z-score) [36]: -0.554
glycan array binding signal (z-score) [37]: 0.081
glycan array binding signal (z-score) [38]: -0.558
glycan array binding signal (z-score) [39]: -0.769
glycan array binding signal (z-score) [40]: -0.217
glycan array binding signal (z-score) [41]: -0.777
glycan array binding signal (z-score) [42]: 0.01
glycan array binding signal (z-score) [43]: -0.837
glycan array binding signal (z-score) [44]: 0.611
glycan array binding signal (z-score) [45]: -0.891
